Test system: 15 different HLA-DR molecules
Assay: Binding assays targeting 15 different HLA-DR molecules (breadth of binding)
Design: species or system human
Conditions: number of the 15 HLA-DR molecules bound

CC[C@H](C)[C@H](NC(=O)[C@H](Cc1c[nH]cn1)NC(=O)[C@H](CC(C)C)NC(=O)[C@H](CO)NC(=O)[C@H](Cc1ccc(O)cc1)NC(=O)[C@H](CC(C)C)NC(=O)[C@H](Cc1c[nH]cn1)NC(=O)[C@H](CCC(=O)O)NC(=O)[C@H](CC(C)C)NC(=O)[C@@H]1CCCN1C(=O)CNC(=O)[C@H](CCCNC(=N)N)NC(=O)[C@@H](N)CCC(=O)O)C(=O)N1CCC[C@H]1C(=O)N[C@@H](CC(N)=O)C(=O)O [Peptide 9019.0190]
Total XRN: 8

Source: patent publication US10556943B2, “HLA-DR binding peptides and their uses” (priority 2007, dated 2020)
